Results are given in words; binding and its absence hold for the method and conditions named. Binding seen in cells or lysates may run through a third protein. Some binding calls cover weakened binding; strength is not graded here.
Target: pyruvate kinase M2 (PKM2), endogenous (human (endogenous in A549)) (UniProt P14618)
Assay: co-IP; endogenous proteins of A549 lysate, IP with PKM2 or OGT antibody, WB; cells with or without EGF (100 ng/ml, 1 h), or serum-deprived and transfected with EGFR or EGFRvIII

By UniProt entry, the sequences of proteins in these tests, tags left out.
UniProt P14618: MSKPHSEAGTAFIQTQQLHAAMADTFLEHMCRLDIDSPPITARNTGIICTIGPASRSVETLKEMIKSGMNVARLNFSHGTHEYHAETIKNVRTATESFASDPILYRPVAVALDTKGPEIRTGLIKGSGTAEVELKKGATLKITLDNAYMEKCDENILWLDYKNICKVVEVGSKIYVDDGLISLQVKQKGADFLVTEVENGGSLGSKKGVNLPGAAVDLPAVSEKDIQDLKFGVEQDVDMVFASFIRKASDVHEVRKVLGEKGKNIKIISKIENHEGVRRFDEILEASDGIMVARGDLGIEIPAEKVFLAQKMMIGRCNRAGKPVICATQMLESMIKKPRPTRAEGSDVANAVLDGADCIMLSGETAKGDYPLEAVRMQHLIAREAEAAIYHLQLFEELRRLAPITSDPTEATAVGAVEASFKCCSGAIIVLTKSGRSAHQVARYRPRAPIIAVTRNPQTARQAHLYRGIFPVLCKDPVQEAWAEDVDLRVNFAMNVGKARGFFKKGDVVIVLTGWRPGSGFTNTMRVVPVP

B1: O-GlcNAcase (OGA), endogenous (enzyme, UniProt O60502 1-916)
chain: MVQKESQATLEERESELSSNPAASAGASLEPPAAPAPGEDNPAGAGGAAVAGAAGGARRFLCGVVEGFYGRPWVMEQRKELFRRLQKWELNTYLYAPKDDYKHRMFWREMYSVEEAEQLMTLISAAREYEIEFIYAISPGLDITFSNPKEVSTLKRKLDQVSQFGCRSFALLFDDIDHNMCAADKEVFSSFAHAQVSITNEIYQYLGEPETFLFCPTEYCGTFCYPNVSQSPYLRTVGEKLLPGIEVLWTGPKVVSKEIPVESIEEVSKIIKRAPVIWDNIHANDYDQKRLFLGPYKGRSTELIPRLKGVLTNPNCEFEANYVAIHTLATWYKSNMNGVRKDVVMTDSEDSTVSIQIKLENEGSDEDIETDVLYSPQMALKLALTEWLQEFGVPHQYSSRQVAHSGAKASVVDGTPLVAAPSLNATTVVTTVYQEPIMSQGAALSGEPTTLTKEEEKKQPDEEPMDMVVEKQEETDHKNDNQILSEIVEAKMAEELKPMDTDKESIAESKSPEMSMQEDCISDIAPMQTDEQTNKEQFVPGPNEKPLYTAEPVTLEDLQLLADLFYLPYEHGPKGAQMLREFQWLRANSSVVSVNCKGKDSEKIEEWRSRAAKFEEMCGLVMGMFTRLSNCANRTILYDMYSYVWDIKSIMSMVKSFVQWLGCRSHSSAQFLIGDQEPWAFRGGLAGEFQRLLPIDGANDLFFQPPPLTPTSKVYTIRPYFPKDEASVYKICREMYDDGVGLPFQSQPDLIGDKLVGGLLSLSLDYCFVLEDEDGICGYALGTVDVTPFIKKCKISWIPFMQEKYTKPNGDKELSEAEKIMLSFHEEQEVLPETFLANFPSLIKMDIHKKVTDPSVAKSMMACLLSSLKANGSRGAFCEVRPDDKRILEFYSKLGCFEIAKMEGFPKDVVILGRSL
- binding: binds

Source: publication PMC9436816
